Reference: the supplement of paper PMC8426693
Some of the results follow.

Legend:
Experiment in all cases: NMR binding call after quantification (hit when 2 of 3 NMR criteria are met) (binary (1 = binding, 0 = not binding)); higher = binding
Conditions in all cases: RNA concentration 10 µM; fragment concentration 200 µM; 293 K
[1] = system: SARS-CoV-2 3'-UTR RNA
[2] = system: SARS-CoV-2 3_SL1 RNA
[3] = system: SARS-CoV-2 3_SL1+2 RNA
[4] = system: SARS-CoV-2 3_SL2 RNA
[5] = system: SARS-CoV-2 3_SL3base RNA
[6] = system: SARS-CoV-2 3_s2m RNA
[7] = system: SARS-CoV-2 5'-UTR RNA
[8] = system: SARS-CoV-2 5_SL1 RNA
[9] = system: SARS-CoV-2 5_SL1234 RNA
[10] = system: SARS-CoV-2 5_SL2+3 RNA
[11] = system: SARS-CoV-2 5_SL4 RNA
[12] = system: SARS-CoV-2 5_SL5 RNA
[13] = system: SARS-CoV-2 5_SL5a RNA
[14] = system: SARS-CoV-2 5_SL5b+c RNA
[15] = system: SARS-CoV-2 5_SL5stem RNA
[16] = system: SARS-CoV-2 5_SL6 RNA

Measured: NMR binding call

Cc1ccccc1CC(N)=O
0: all assays above

Fc1ccccc1CNC1CCOCC1
0: all assays above

Cc1cccc(C(=O)NC(C)C2CC2)n1 (stereo not drawn)
0: all assays above

CC(Oc1ccccc1F)C(=O)O (stereo not drawn)
0: all assays above

CC(=O)NCC1(c2ccccc2)CCOCC1
0: all assays above

Cc1ccccc1-n1cc(C(=O)O)nn1
0: all assays above

CS(=O)(=O)N1CCC(C(=O)NC2CC2)CC1
0: all assays above

Oc1ncc(NC2CCCCC2)c(O)n1
0: all assays above

CC(Oc1ccc(Cl)cc1)C(N)=O (stereo not drawn)
0: all assays above

CCOc1ccc(NC(=O)NC(C)(C)C)cc1
0: all assays above

COC(=O)CNC(=O)C1CCCCC1
0: all assays above

O=C(c1ccco1)N1CCN(C(=O)C2CC2)CC1
0: all assays above

CCN1N=C(C(F)(F)F)CC1=O
0: all assays above

C1CN(CC2CCOCC2)CCN1
0: all assays above

COC(=O)c1cccc(NS(C)(=O)=O)c1
0: all assays above

CC(C)(C)NC(=O)N1CCC(C(N)=O)CC1
0: all assays above

COc1cc(C(=O)O)cc(OC)c1OC
0: all assays above

CN1CCN(C(=O)C2CCCO2)CC1 (stereo not drawn)
0: all assays above

CC(=O)Nc1ccc(NC(=O)CC(C)C)cc1
0: all assays above

CC(=O)Nc1ncc(Cc2cccc(C)c2)s1
0: all assays above

CN(CC(=O)O)C(=O)c1ccc(F)cc1
0: all assays above

CC(C)(N)CN1CCCC1
0: all assays above

CC(=O)N1CCOC(CO)C1 (stereo not drawn)
0: all assays above

CCOc1c(F)cccc1C(=O)N(C)C
0: all assays above

CC1CCCN(C(=O)CO)C1 (stereo not drawn)
0: all assays above

CCC(=O)Nc1ccc(N2CCC(C)CC2)cc1
0: all assays above

Cc1[nH][nH]c(=O)c1CCO
0: all assays above

Three entries already listed, arranged by heavy-atom count, largest number first:
CCC(=O)Nc1ccc(N2CCC(C)CC2)cc1
0: all assays above

CCOc1c(F)cccc1C(=O)N(C)C
0: all assays above

CC(=O)N1CCOC(CO)C1 (stereo not drawn)
0: all assays above

Further entries.

c1ccc2c(CN3CCCCCC3)c[nH]c2c1
0: all assays above

CN1CCCC(OC(=O)c2ccco2)C1 (stereo not drawn)
0: all assays above

O=C(COc1ccccc1)NC1CCCCC1
0: all assays above

O=C(NCc1ccco1)Nc1ccc(F)cc1
0: all assays above

CC(=O)NC1CNc2ccccc2C1 (stereo not drawn)
0: all assays above

CCn1cc(C(=O)NCc2ccc(F)cc2)cn1
0: all assays above
